From article PMC9323616
Results are given in words; binding and its absence hold for the method and conditions named. For some of these results: In cells and extracts the contact can be indirect. Some binding calls cover weakened binding; strength is not graded here. For some of these results: Sequences can lack the tags named with a protein.

Columns and labels:
[1] = target: T1, WRKY53 (residues 1-217)-BK (Arabidopsis) (UniProt Q9SUP6); test: two-hybrid; yeast AH109; WRKY53 (residues 1-217) in pGBKT7 as bait, CAM1 in pGADT7 as prey; growth on SD/-Leu/-Trp, SD/-Ade/-His/-Leu/-Trp and blue colonies with X-alpha-gal; three independent experiments
T1 sequence: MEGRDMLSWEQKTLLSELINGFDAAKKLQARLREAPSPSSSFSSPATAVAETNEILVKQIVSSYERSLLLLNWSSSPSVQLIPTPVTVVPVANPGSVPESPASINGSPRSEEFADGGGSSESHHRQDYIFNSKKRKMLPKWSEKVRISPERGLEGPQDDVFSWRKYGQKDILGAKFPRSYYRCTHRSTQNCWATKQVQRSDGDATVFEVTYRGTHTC

[2] = target: T2, WRKY53-Nluc (Arabidopsis) (UniProt Q9SUP6); test: split reporter; firefly luciferase complementation imaging (LCI) in leaves infiltrated with Agrobacterium GV3101; imaged after 2-3 days
T2 sequence: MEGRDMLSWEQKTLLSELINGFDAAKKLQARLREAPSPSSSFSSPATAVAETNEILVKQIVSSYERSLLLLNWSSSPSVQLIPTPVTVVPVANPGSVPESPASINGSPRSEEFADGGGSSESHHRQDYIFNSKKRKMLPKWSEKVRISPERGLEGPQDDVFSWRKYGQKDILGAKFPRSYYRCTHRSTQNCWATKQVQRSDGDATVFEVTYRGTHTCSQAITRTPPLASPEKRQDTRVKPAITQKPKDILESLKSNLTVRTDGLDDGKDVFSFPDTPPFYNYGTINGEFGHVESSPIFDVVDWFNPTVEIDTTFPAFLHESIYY

CAM1-GST (Arabidopsis) [3] = target: CAM1-GST (Arabidopsis) (UniProt P0DH95); test: pull-down; in vitro; CAM1-GST or GST on glutathione beads, WRKY53-HIS detected with anti-HIS; buffer 1% NP40, 150 mM NaCl, 50 mM Tris-HCl, 1 mM EGTA, pH7.5; no calcium added
CAM1-GST (Arabidopsis) [4] = target: CAM1-GST (Arabidopsis) (UniProt P0DH95); test: condition: only with calcium added (Ca2+ concentration is 10^-2 mM in the legend of Figure 3); pull-down; pull-down of CAM1 and WRKY53 with calcium added (Figure 3c; the legend gives Ca2+ concentration 10^-2 mM)

## CAM1-AD (calmodulin 1 in pGADT7) (from UniProt P0DH95 1-149)
[1]
  binding: binds

## CAM1-Cluc (from UniProt P0DH95 1-149)
[2]
  binding: binds

B1: WRKY53-HIS (protein, UniProt Q9SUP6 1-324)
chain: MEGRDMLSWEQKTLLSELINGFDAAKKLQARLREAPSPSSSFSSPATAVAETNEILVKQIVSSYERSLLLLNWSSSPSVQLIPTPVTVVPVANPGSVPESPASINGSPRSEEFADGGGSSESHHRQDYIFNSKKRKMLPKWSEKVRISPERGLEGPQDDVFSWRKYGQKDILGAKFPRSYYRCTHRSTQNCWATKQVQRSDGDATVFEVTYRGTHTCSQAITRTPPLASPEKRQDTRVKPAITQKPKDILESLKSNLTVRTDGLDDGKDVFSFPDTPPFYNYGTINGEFGHVESSPIFDVVDWFNPTVEIDTTFPAFLHESIYY
CAM1-GST (Arabidopsis) [3]
  binding: binds
CAM1-GST (Arabidopsis) [4]
  binding: no binding
